Primary screen of a compound library

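Whole-parasite assay of Trypanosoma brucei over 72 hours; the read-out is not stated. Compounds at 30 µM. The record gives no direction; compounds that gave an IC50 in retests scored well above the rest, so higher reads as stronger inhibition. Values scatter widely below zero; nearly all retest evidence comes from the higher of the two concentrations used. Of about 64,000 compounds tested this way, about 940 (1.5%) reached 50% or more in at least one test.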

Results are given as percent effect.
The controls that fix the scale are not given in the record; negative values are as filed.
Compounds were drawn at random from those tested, without regard to their results.

Compound	effect
O=C(c1ccco1)N(c1ccc(F)cn1)C1CCOCC1	-97.59
CC[C@@H](C)[C@@H](N)C(=O)Nc1cccc(-c2cnc(N(C)C)nc2)c1	97.6
O=C(c1c[nH]c(=O)[nH]c1=O)N1CCCC(c2cnccn2)C1 (centres unmarked)	44.66
Cc1ncsc1CCC(=O)N1CCCC[C@H](N(C)C)C1	23.2
O=C(O)C(F)(F)F.O=C(c1ccncc1F)N1Cc2nc(COCC3CC3)oc2C1	-43.05
COc1cnc(CN2CC(=O)N(c3ccc(C)cc3)CC2C)cc1O (centres unmarked)	-10.19
COCCCC1(CO)CCCN(Cc2nccs2)C1 (centres unmarked)	-9.19
Cc1nccn1-c1ccc(N2CCC(NC(C)CC(C)C)CC2)cc1 (centres unmarked)	-40.27
CC(=O)N1CCC2(CCN(C(=O)c3cccc(C(F)(F)F)c3)CC2)C1	-21.66
CC(SCCC(=O)NC(N)=O)c1ccccc1F (centres unmarked)	-37.8
Cc1ccc(CNC(=O)CN2CCCC(Cn3cncn3)C2)s1 (centres unmarked)	-19.25
N#Cc1cccc(S(=O)(=O)N2CC(CC(=O)O)c3ccccc32)c1 (centres unmarked)	28.41
N#Cc1ccccc1NC(=O)C1CN(C(=O)c2ccc3c(c2)OCO3)C1	12.65
CCC(C)c1cc(C(=O)N(CC(=O)NC)c2cccc(F)c2)on1 (centres unmarked)	-13.15
CCC[C@H]1CN(c2nccc(OC)n2)C[C@@H]1NC(=O)C1CCOCC1	-3.954
NC(=O)C1CCCN1Cc1cccc(NC(=O)c2cc(Cl)cc(Cl)c2)c1 (centres unmarked)	26.87
CC(C)CC(NC(=O)CN(C)c1cnccn1)c1cccs1 (centres unmarked)	-3.007
O=C(N1CCC(Nc2cccnn2)CC1)C1(c2ccc(F)cc2)CC1	1.281
CCCn1cc(C(=O)NCCc2ccncc2)c(C)n1	-21.27
O=C1N(Cc2cccc(F)c2F)CCCC1(O)CNCC1CCCCC1 (centres unmarked)	-11.47
COc1ccc(OC)c(CN2CCN(Cc3cscn3)CC2)c1	-19.46
Cc1ccc(-c2nc(C(=O)N(C)CC(=O)N3CCCC3)cs2)c(C)c1	-6.711
c1cnc(N2CCCC(c3csc(Nc4cnccn4)n3)C2)nc1 (centres unmarked)	86.19
CCc1cc(N2CCN(c3ccc(Cl)cn3)CC2)n2nccc2n1	-6.164
Cc1cc(N(C)C)nc(N2CCCC2c2ccccn2)n1 (centres unmarked)	-5.313
CC(C(=O)N1CCN(CCOc2ccccc2)CC1)n1cc(Cl)cn1 (centres unmarked)	0.3941
O=C(O)C(F)(F)F.[H][C@@]12CCCO[C@]1([H])[C@H](NC(=O)CC1CC1)CN(Cc1ccc(F)cc1)C2	-4.639
Cc1csc(CN(C)C(=O)Nc2cc(F)cc(N3CCCC3)c2)n1	-45.32
CC(C)NC(=O)NC[C@H]1OC[C@@H](NCc2ccc(S(C)(=O)=O)cc2)[C@@H]1O	0.4756
CN(CCN1CCOCC1)C(=O)CCc1cccc(Cl)c1	2.26
Cc1sc2c(C3CCCN(C(C)C)C3)nc(C)n2c1C (centres unmarked)	-21.43
O=C(O)C(F)(F)F.O=C(O)C(F)(F)F.[H][C@@]12CCN(Cc3cc(C)on3)C[C@@]1([H])O[C@@H](C(=O)Nc1cccnc1C)C2	-15.93
O=C(c1ccccc1)N1CCN(CC2CCOc3ccccc3C2)CC1 (centres unmarked)	-32.67
c1ccc(Cc2nnc(CN3CCCCC3Cn3cncn3)o2)cc1 (centres unmarked)	-18.84
COc1ncccc1C(=O)NCCn1cnc(C)cc1=O	3.86
CC(C)n1cnnc1C1CCCN(S(=O)(=O)CC2CCCC2)C1 (centres unmarked)	-24.33
Cc1noc(C2CCN(Cn3cc(Br)cn3)CC2)n1	-1.808
CCN(Cc1cccnc1)C1CCN(c2ccccc2)C1=O (centres unmarked)	-40.85
Cc1cnc(N2CCC3(CCN(CC4CCCC4)C3=O)CC2)nc1.O=C(O)C(F)(F)F	-22.16
O=c1[nH]cnc2[nH]c(N3CCCCC3)nc12	-36.18
O=C(O)C(F)(F)F.O=C(O)C(F)(F)F.[H][C@@]12C[C@@H](Oc3cncnc3)CN1CCN(Cc1ccccn1)C2	-97.91
CCc1onc(C)c1C(=O)N1CCC(c2cc3ncccc3cn2)CC1	-27.15
OC1CCN(c2ccnc3c(F)cc(Br)cc23)CC1	3.027
CN(CCS(C)(=O)=O)C1CCCN(Cc2noc(C3CC3)n2)C1 (centres unmarked)	-27.98
O=C(NCc1cnn2ccccc12)NC1CCCC1	-7.809
c1ccc2oc(N3CCCC4(CCOC4)C3)nc2c1 (centres unmarked)	-3.234
Cc1n[nH]c(C)c1NC(=O)CN1CCCC1Cn1cncn1 (centres unmarked)	-2.92
CCc1nc(CN2CCCN(C(=O)CCCOC)CC2)cs1	2.696
O=C(O)CSc1nccc(-c2ccc3c(c2)OCO3)n1	-31.72
CN(C)C1CCN(c2cc(-c3ccccc3)nc3ccnn23)C1 (centres unmarked)	-25.65
Clc1ccccc1-c1nnc(CSCCN2CCOCC2)o1	-6.062
O=S(=O)(CCSc1nccn1C1CC1)c1ccccc1	-25.08
CCCNS(=O)(=O)c1ccc(C(=O)NC(CC)c2cnn(C)c2)cc1 (centres unmarked)	-18.2
Cc1ccc(Oc2ncccc2C(=O)N(C)CCCN(C)C)c(C)c1	-2.013
c1cc(-c2c[nH]nc2C2CCCCC2)nc(N2CCCCCC2)n1	99.82

The last 4 entries again:

| Compound | effect |
|---|---|
| `O=S(=O)(CCSc1nccn1C1CC1)c1ccccc1` | -25.08 |
| `CCCNS(=O)(=O)c1ccc(C(=O)NC(CC)c2cnn(C)c2)cc1` (centres unmarked) | -18.2 |
| `Cc1ccc(Oc2ncccc2C(=O)N(C)CCCN(C)C)c(C)c1` | -2.013 |
| `c1cc(-c2c[nH]nc2C2CCCCC2)nc(N2CCCCCC2)n1` | 99.82 |

Source: ChEMBL document CHEMBL3988442, “University of Dundee, Small-Polar-MMV Screening Library” (2021).